The values below come from PubChem BioAssay AID652 (University of Pittsburgh Molecular Library Screening Center, 2007).

This experiment deals with Gag-Pol polyprotein (Human immunodeficiency virus type 1 group M subtype B (isolate HXB2)) (UniProt P04585). Briefly: HIV-1 RT RNase H inhibitor potency, dose response, biochemical, probe assessment (AID 652). As to conditions: HIV-1 RT RNase H enzymatic assay, at 50 µM, stronger effect = higher value.

Each structure is given as a SMILES string. Some of the results follow.

Take `O=P(Nc1nccs1)(c1ccccc1)c1nc2ccccc2s1` (stereo unspecified): the inhibition came to 93.2%.

By inhibition is commonly meant how much of the control response was suppressed.
